From article doi:10.1101/2020.10.21.349357
Read-outs that look alike come from different tables or passages of the source. No constants are given. Whether binding was seen depends on the method and setting. For some of these results: Binding seen in cells or lysates may run through a third protein. Some binding calls cover weakened binding; strength is not graded here. For some of these results: Sequences can lack the tags named with a protein.

Protein sequences, listed by entry. Tags and fused reporters are not part of them.
UniProt O88522, whole entry: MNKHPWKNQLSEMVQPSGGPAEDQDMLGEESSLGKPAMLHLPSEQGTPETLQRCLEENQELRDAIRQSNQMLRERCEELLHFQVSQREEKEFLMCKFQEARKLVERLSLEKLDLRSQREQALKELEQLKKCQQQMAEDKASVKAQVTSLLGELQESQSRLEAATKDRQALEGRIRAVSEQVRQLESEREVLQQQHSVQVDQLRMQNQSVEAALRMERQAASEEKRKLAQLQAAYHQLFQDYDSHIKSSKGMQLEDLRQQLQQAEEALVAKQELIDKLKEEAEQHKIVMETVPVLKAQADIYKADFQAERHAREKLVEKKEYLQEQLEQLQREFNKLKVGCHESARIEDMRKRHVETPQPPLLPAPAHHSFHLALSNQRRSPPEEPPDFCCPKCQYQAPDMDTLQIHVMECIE
UniProt Q9Y6K9, whole entry: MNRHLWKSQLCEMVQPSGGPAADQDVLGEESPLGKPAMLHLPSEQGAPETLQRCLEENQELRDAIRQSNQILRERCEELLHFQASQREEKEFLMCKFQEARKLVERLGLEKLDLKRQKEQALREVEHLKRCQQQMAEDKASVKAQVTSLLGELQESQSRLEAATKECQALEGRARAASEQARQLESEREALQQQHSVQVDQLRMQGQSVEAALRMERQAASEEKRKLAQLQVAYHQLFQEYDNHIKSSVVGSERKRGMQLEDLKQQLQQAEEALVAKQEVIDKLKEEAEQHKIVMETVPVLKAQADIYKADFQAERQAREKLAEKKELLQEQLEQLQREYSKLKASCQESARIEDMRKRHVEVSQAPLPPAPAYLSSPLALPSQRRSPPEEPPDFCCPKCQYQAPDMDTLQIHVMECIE

What was measured:
Assay in all cases: co-IP
[1] = target: endogenous NEMO of mouse peritoneal macrophages (mouse (endogenous in peritoneal macrophages)) (UniProt O88522)
[2] = target: Flag-tagged NEMO (UniProt Q9Y6K9)
[3] = target: Flag-tagged NEMO (UniProt Q9Y6K9); remark: listed apart in the source

Binder	binding [1]	binding [2]	binding [3]
endogenous IKKβ of mouse peritoneal macrophages (enzyme, UniProt O88351 1-757) MSWSPSLPTQTCGAWEMKERLGTGGFGNVIRWHNQATGEQIAIKQCRQELSPKNRNRWCLEIQIMRRLNHPNVVAARDVPEGMQNLAPNDLPLLAMEYCQGGDLRRYLNQFENCCGLREGAVLTLLSDIASALRYLHENRIIHRDLKPENIVLQQGEKRLIHKIIDLGYAKELDQGSLCTSFVGTLQYLAPELLEQQKYTVTVDYWSFGTLAFECITGFRPFLPNWQPVQWHSKVRQKSEVDIVVSEDLNGAVKFSSSLPFPNNLNSVLAERLEKWLQLMLMWHPRQRGTDPQYGPNGCFRALDDILNLKLVHVLNMVTGTVHTYPVTEDESLQSLKTRIQENTGILETDQELLQKAGLVLLPDKPATQCISDSKTNEGLTLDMDLVFLLDNSKINYETQITPRPPPESVSCILQEPKRNLSFFQLRKVWGQVWHSIQTLKEDCNRLQQGQRAAMMSLLRNNSCLSKMKNAMASTAQQLKAKLDFFKTSIQIDLEKYKEQTEFGITSDKLLLAWREMEQAVEQCGRENDVKHLVERMMALQTDIVDLQRSPMGRKQGGTLDDLEEQARELYRKLREKPRDQRTEGDSQEMVRLLLQAIQSFEKKVRVIYTQLSKTVVCKQKALELLPKVEEVVSLMNEDERTVVRLQEKRQKELWNLLKIACSKVRGPVSGSPDSMNVSRLSHPGQLMSQPSSACDSLPESDKKSEELVAEAHALCSRLESALQDTVKEQDRSFTTLDWSWLQMEDEERCSLEQACD	binds		
HA-tagged N4BP1 (full length) (protein, UniProt O75113 1-896) MAARAVLDEFTAPAEKAELLEQSRGRIEGLFGVSLAVLGALGAEEPLPARIWLQLCGAQEAVHSAKEYIKGICEPELEERECYPKDMHCIFVGAESLFLKSLIQDTCADLCILDIGLLGIRGSAEAVVMARSHIQQFVKLFENKENLPSSQKESEVKREFKQFVEAHADNYTMDLLILPTSLKKELLTLTQGEENLFETGDDEVIEMRDSQQTEFTQNAATGLNISRDETVLQEEARNKAGTPVSELTKQMDTVLSSSPDVLFDPINGLTPDEEALSNERICQKRRFSDSEERHTKKQFSLENVQEGEILHDAKTLAGNVIADLSDSSADSENLSPDIKETTEEMEYNILVNFFKTMGYSQEIVEKVIKVYGPSTEPLLLLEEIEKENKRFQEDREFSAGTVYPETNKTKNKGVYSSTNELTTDSTPKKTQAHTQQNMVEKFSQLPFKVEAKPCTSNCRINTFRTVPIEQKHEVWGSNQNYICNTDPETDGLSPSVASPSPKEVNFVSRGASSHQPRVPLFPENGLHQQPEPLLPNNMKSACEKRLGCCSSPHSKPNCSTLSPPMPLPQLLPSVTDARSAGPSDHIDSSVTGVQRFRDTLKIPYKLELKNEPGRTDLKHIVIDGSNVAITHGLKKFFSCRGIAIAVEYFWKLGNRNITVFVPQWRTRRDPNVTEQHFLTQLQELGILSLTPARMVFGERIASHDDRFLLHLADKTGGIIVTNDNFREFVNESVSWREIITKRLLQYTFVGDIFMVPDDPLGRSGPRLEEFLQKEVCLRDMQPLLSALPNVGMFDPSFRVPGTQAASTSHQPPTRIQGAPSSHWLPQQPHFPLLPALPSLQQNLPMPAQRSSAETNELREALLKIFPDSEQRLKIDQILVAHPYMKDLNALSAMVLD		binds	binds
endogenous N4BP1 of mouse peritoneal macrophages (protein, UniProt Q6A037 1-893) MAARVVLDEFTAPAEKAALLERSRGRIEALFGVGLAVLGALGAEEPLPARIWLQLRGAQEAVHSAKEYIKGICEPELEEKECYPKAMHCIFVGAQSLFLKSLIQDTCADLCVLDTGLLGIRGSAEAVVMARSHIQQFVKLFESNENLPSNQRESEIKREFRQFVEAHADSYTMDLLILPTSLKKELLSLTQGEESLFETDDDVITVGDVRPPEYTQSAATGPSSARDEVVVQEDSRNKARTPVSELTKHMDTVFSSSPDVLFVPVNGLSPDEDALSKDRVCHKRRSSDTEERHTKKQFSLENVPEGELLPDGKGSAGNEVIDLSDPASNSTNLSPDGKDTTEEMEYNILVNFFKTMGYSQEIVEKVIREYGPSTEPLLLLEEIEKENKRLQEDRDFPPCTVYPDASQSRNAGVGSTTNELTADSTPKKAQSHTEQSMVERFSQLPFKDSKHCTSNCKVNSFRTVPVGQKQEIWGSKQNSSCTVDLETDGHSASAASASPKDISFVSRGASGHQQRNPAFPENGFQQQTEPLLPNNTKPACEKRSGSCSSPQPKPNYPPLSPPLPLPQLLPSVTEARLGGSSDHIDSSVTGVQRFRDTLKIPYKLELKNEPGRADLKHIVIDGSNVAITHGLKKFFSCRGIAIAVEYFWKLGNRNITVFVPQWRTRRDPNITEQHFLTQLQELGILSLTPARMVFGERIASHDDRFLLHLADKTGGIIVTNDNFREFVTESVSWREIITKRLLQYTFVGDIFMVPDDPLGRNGPRLEEFLRKEAFLRHMQPLLNALPSVGTFDPGFRSPSTQVANNSHQPPPRIQTSSSPWLPQQSHFTALATLPSMQQNPPLPAQRSSAETSELREALLKIFPDSEQKLKIDQILAAHPYMKDLNALSALVLD	binds		
